Measurements: paper PMC9050680
No constants are given. Whether binding was seen depends on the method and setting. In cells and extracts the contact can be indirect. Some binding calls cover weakened binding; strength is not graded here.

The chains behind the UniProt entries cited, without tags or fusion partners.
UniProt P54845: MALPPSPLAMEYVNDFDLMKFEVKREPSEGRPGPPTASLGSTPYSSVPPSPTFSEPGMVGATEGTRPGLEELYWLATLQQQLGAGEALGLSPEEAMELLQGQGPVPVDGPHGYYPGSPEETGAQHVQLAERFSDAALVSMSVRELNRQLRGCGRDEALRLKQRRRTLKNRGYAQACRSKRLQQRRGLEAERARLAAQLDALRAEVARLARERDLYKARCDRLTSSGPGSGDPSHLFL
UniProt O43186: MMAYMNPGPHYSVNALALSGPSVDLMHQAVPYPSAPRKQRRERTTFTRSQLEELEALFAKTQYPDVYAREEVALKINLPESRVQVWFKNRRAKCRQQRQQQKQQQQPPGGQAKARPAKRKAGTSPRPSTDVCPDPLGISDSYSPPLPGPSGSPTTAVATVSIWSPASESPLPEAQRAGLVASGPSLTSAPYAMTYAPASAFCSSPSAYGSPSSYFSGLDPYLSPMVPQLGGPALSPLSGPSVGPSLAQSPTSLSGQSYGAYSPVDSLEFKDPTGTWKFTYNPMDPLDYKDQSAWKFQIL

Assays:
[1] = molecular target: human NRL with mCherry or EGFP fused to the N-terminus (near the activation domain) (human) (UniProt P54845); test: FRET or BRET; CM-FRET: confocal microscopy, acceptor photobleaching (APB) on HEK293T cells fixed with 2% paraformaldehyde; donor EGFP, acceptor mCherry; compared with mCh + eG
[2] = molecular target: human NRL with mCherry or EGFP fused to the N-terminus (near the activation domain) (human) (UniProt P54845); test: FRET or BRET; FC-FRET: flow cytometry, sensitized emission (three-cube N_FRET, apparent FRET efficiency) in live transiently cotransfected HEK293T cells suspended in PBS; donor EGFP, acceptor mCherry; population means and dependence on expression level compared with unlinked mCh + eG
[3] = molecular target: human NRL with mCherry or EGFP fused to the N-terminus (near the activation domain) (human) (UniProt P54845); test: FRET or BRET; CM-FRET: confocal microscopy, sensitized emission, live transiently transfected HEK293T cells at 37 °C, 5% CO2; donor EGFP, acceptor mCherry; compared with mCh + eG

- binding [1]: binds
Substance: human CRX with mCherry or EGFP fused to the N-terminus (near the homeodomain) (from UniProt O43186 1-299)
- binding [2]: binds
- binding [3]: binds
